Measurements as given in the supplement of paper PMC3334620.
Whole data set: some 33,000 sequences, median “E-score (-0.5 to 0.5)” near -0.0034, cut for the highest 2% near 0.25. The list shows a part of the results.

Each sequence was assayed against T1, Yap3 (UniProt P38749) (assay: PBM E-score (8-mer binding enrichment) (E-score (-0.5 to 0.5)); higher = stronger / more preferred TF binding). Conditions: protein concentration: 100 nM; construct: GST-full length.
T1 sequence: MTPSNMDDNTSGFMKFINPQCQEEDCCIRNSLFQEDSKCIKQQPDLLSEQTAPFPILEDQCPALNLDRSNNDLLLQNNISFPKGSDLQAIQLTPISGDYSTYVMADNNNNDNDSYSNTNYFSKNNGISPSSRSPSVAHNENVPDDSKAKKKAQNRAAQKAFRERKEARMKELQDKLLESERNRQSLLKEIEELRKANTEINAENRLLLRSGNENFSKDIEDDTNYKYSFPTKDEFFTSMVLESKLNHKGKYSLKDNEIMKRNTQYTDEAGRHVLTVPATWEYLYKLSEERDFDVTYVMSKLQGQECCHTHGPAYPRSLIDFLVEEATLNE
Method in brief: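 Universal all-10-mer Agilent arrays, fresh or stripped once, were converted to double-stranded form by primer extension. GST-tagged yeast transcription factors from PURExpress in vitro transcription/translation, full-length or DNA-binding domain only, were applied at about 100-200 nM and detected with fluorescent anti-GST. After masliner normalisation, the Universal PBM Analysis Suite scored each ungapped eight-base word together with its reverse complement by E-score.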

| Sequence | PBM E-score |
| --- | --- |
| CGGGTATA | 0.0375 |
| AGGGTCGG | -0.322 |
| AGTGTATC | 0.0463 |
| CGCAAGTC | -0.139 |
| ATGCGTAA | 0.195 |
| TATACCCA | -0.056 |
| CCCTTGCG | -0.242 |
| AGTGAGAT | 0.0269 |
| AATTGATC | -0.0282 |
| AGTCCCCG | -0.213 |
| GCCCACTA | -0.0504 |
| AGCCTATA | 0.138 |
| CCGCTGGC | -0.226 |
| GAAACACC | 0.0336 |
| CATAAGGG | 0.129 |
| CATTTGAA | 0.00597 |
| CTCTCCGC | -0.0263 |
| AACTGATA | 0.148 |
| CTGCAACC | -0.0751 |
| GTACTTTA | 0.166 |
| CCCAGCCG | -0.261 |
| CACTGTCC | -0.12 |
| ACACTCGA | 0.0243 |
| GCCGAGCC | -0.0118 |
| AATAGATG | 0.0851 |

| Sequence | PBM E-score |
| --- | --- |
| GTTAGTTA | 0.169 |
| CGTGCTGC | -0.132 |
| CGGGCACC | -0.331 |
| AAACTCTG | 0.0135 |
| ATTTTCTA | 0.176 |
| GGTACCAA | 0.0529 |
| AAAAGTTC | 0.178 |
| CTACCCGA | -0.00986 |
| ATGACCGA | -0.00271 |
| AGAGGCGG | -0.0723 |
| TAGTGAAA | -0.0103 |
| CCCTAGGC | -0.0928 |
| CGTACTAG | 0.0559 |
| GGACCTTA | -0.152 |
| AGCTGCTC | -0.0976 |
| AAAGGTGC | -0.0396 |
| GGGACTAA | -0.168 |
| CACGCAAA | 0.0585 |
| AATTTCCA | 0.267 |
| GGTAGGCA | -0.101 |
| ATCGTACC | -0.0847 |
| AAGTCCAA | 0.0286 |
| CAGCTTAC | 0.157 |
| AAAAGGGC | -0.108 |
| AGGTAGAA | 0.0565 |

Pulled one by one from the list above (4):

| Sequence | PBM E-score |
| --- | --- |
| CACGCAAA | 0.0585 |
| GTACTTTA | 0.166 |
| AAAGGTGC | -0.0396 |
| GGTACCAA | 0.0529 |

(continued)

| Sequence | PBM E-score |
| --- | --- |
| GCGCATCA | 0.103 |
| GCACGGAA | -0.0926 |
| CGAGTTGA | 0.0975 |
| GGACCAGA | -0.117 |
| CGAGCTGC | -0.0374 |
| ACTTTCTA | 0.0796 |
| GAAACAAC | -0.0477 |
| ACATACGG | 0.0295 |
| GGTCTAAA | -0.00283 |
| CTCCACCA | -0.233 |
| TAAGACCA | 0.0423 |
| CGTCGGAC | -0.2 |
| TACAGGGA | -0.153 |
| AAGCGACC | 0.0995 |
| ATGCTTCA | -0.0284 |
| GGAGGACA | -0.0888 |
| AATGGCAT | 0.222 |
| AATACTGA | 0.0455 |
| AACGACCA | 0.0973 |
| AGAACTGG | -0.00913 |
| GGGGGCTA | -0.41 |
| CTACGACC | -0.0402 |
| AGCTCCGG | -0.126 |
| CACTCCTC | -0.171 |
| CAGGTCTA | 0.00211 |

| Sequence | PBM E-score |
| --- | --- |
| GAGGATGA | 0.169 |
| AGACCATC | -0.0467 |
| AACCATTA | 0.242 |
| AGGAGCTC | -0.235 |
| CCGGTCTA | -0.235 |
| GGACCCAC | -0.114 |
| CACGAGCG | -0.197 |
| CAGTGTAA | 0.165 |
| GGCACAAA | -0.0251 |
| GACAAAGA | 0.149 |
| ATTTAGAA | 0.0948 |
| CCGTACCG | -0.208 |
| CGGCCTGA | -0.359 |
| AAGCGGCC | -0.224 |
| CTAGACCA | -0.037 |
| CTGGTCAA | 0.00469 |
| ACGGAAGA | 0.131 |
| ATACACCG | 0.0328 |
| ATATTATA | 0.186 |
| CGCGAAAA | 0.0354 |
| CTTGGAGA | 0.0246 |
| CTTTTGAA | 0.04 |
| CCTAATCG | 0.189 |
| CTAATGAA | 0.21 |
| AAAGATAG | 0.094 |

An excerpt of these results, with tabs:
Sequence	PBM E-score
AAAAGGGC	-0.108
AGGTAGAA	0.0565
GCGCATCA	0.103
GCACGGAA	-0.0926
GGACCAGA	-0.117
CGAGCTGC	-0.0374
ACTTTCTA	0.0796
GAAACAAC	-0.0477
ACATACGG	0.0295
GGTCTAAA	-0.00283
CTCCACCA	-0.233
TAAGACCA	0.0423
CGTCGGAC	-0.2
TACAGGGA	-0.153
AAGCGACC	0.0995
ATGCTTCA	-0.0284
GGAGGACA	-0.0888
AATGGCAT	0.222
AATACTGA	0.0455
AACGACCA	0.0973
AGAACTGG	-0.00913
GGGGGCTA	-0.41
CTACGACC	-0.0402
AGCTCCGG	-0.126
CACTCCTC	-0.171
CAGGTCTA	0.00211
GAGGATGA	0.169
AGACCATC	-0.0467
AACCATTA	0.242
AGGAGCTC	-0.235
CCGGTCTA	-0.235
GGACCCAC	-0.114
CACGAGCG	-0.197
CAGTGTAA	0.165
GGCACAAA	-0.0251
ATTTAGAA	0.0948
CCGTACCG	-0.208
AAGCGGCC	-0.224
CTAGACCA	-0.037
CTGGTCAA	0.00469
ACGGAAGA	0.131
ATACACCG	0.0328
ATATTATA	0.186
CGCGAAAA	0.0354
CTTGGAGA	0.0246
CTTTTGAA	0.04
CCTAATCG	0.189
CTAATGAA	0.21
AAAGATAG	0.094

More entries.

| Sequence | PBM E-score |
| --- | --- |
| AACGCATC | -0.00198 |
| AAGTCTCA | -0.101 |
| ACTAACAC | 0.125 |
| AGTTAAGC | 0.0495 |
| GTCCAGCA | -0.0978 |
| CTTCTCCC | -0.29 |
| AGTCTCGA | -0.00667 |
| GACTCATA | -0.0271 |
| AGAAATCG | 0.0606 |
| TCGCGTAA | 0.302 |
| CGGCGCTC | -0.0618 |
| CTGATACC | 0.0477 |
| AACGGAAA | 0.171 |
| CAGGCCCG | -0.394 |
| CACTCACG | 0.0307 |
| ACATACTG | -0.024 |
| ATAATACG | 0.292 |
| CGGTGCTC | -0.0257 |
| AACGCTCT | -0.216 |
| AGGAGGTC | -0.328 |
| CAGCCCAG | -0.377 |
| CCCCGTTA | -0.058 |
| CGATCTTC | -0.0379 |
| AACTACGG | -0.153 |
| GCGATTCC | -0.036 |

| Sequence | PBM E-score |
| --- | --- |
| ACATACCT | 0.029 |
| GTACTGAC | -0.128 |
| AAATTTGA | 0.203 |
| CTTACAAG | -0.00238 |
| GCCGCGGA | -0.0953 |
| CTAGTCAG | -0.14 |
| CACCCGCG | 0.0334 |
| CGGGCAGC | -0.156 |
| AGCCGTTA | 0.082 |
| GCGGGTCA | -0.00762 |
| GAGACTAA | 0.147 |
| TATTCCCA | 0.104 |
| CAGAGTCA | -0.289 |
| AGATGGTC | -0.12 |
| TATAGGGA | -0.0201 |
| GGCCCTAA | -0.0404 |
| CGGATCCG | 0.022 |
| CTTACTCC | 0.0715 |
| GTGGCAAC | -0.0769 |
| ATGGGTAA | 0.0549 |
| CCGCCCCA | -0.121 |
| AGTGTCTA | -0.035 |
| CGTAATCA | 0.349 |
| ACTCCCCA | -0.176 |
| ATTCCTCG | 0.104 |

| Sequence | PBM E-score |
| --- | --- |
| AACCGTAT | -0.141 |
| ACTTACAA | 0.253 |
| AAGAGTAA | 0.0872 |
| CAACACCG | -0.142 |
| CTATAGTC | -0.132 |
| CCTAAGGA | -0.00257 |
| AGGCGACT | -0.111 |
| AGAAAGCG | 0.0699 |
| ACTTCGGA | 0.193 |
| CCCTATGC | -0.138 |
| AACCACTG | 0.101 |
| AAAAGGAC | 0.0381 |
| ACCGACCC | -0.0819 |
| ACCGCAGT | 0.0979 |
| GAGCCCGA | -0.139 |
| ACCTGAGA | 0.00243 |
| AGCCCGCA | -0.123 |
| AATGATTC | 0.115 |
| CCCTCTAC | -0.199 |
| AAATGCCG | 0.113 |
| CCGAACCA | -0.116 |
| TCGGAGCA | -0.116 |
